# Test results reported in PubChem BioAssay AID1347076 (National Center for Advancing Translational Sciences (NCATS), 2019).
# Hit rate of the full screen: of about 400,000 compounds, about 13,000 (3.2%) were called active. This list was built around the results that the source calls inconclusive (neither active nor inactive); the mix of calls is not that of the screen. Calls come from the whole dose curve; as a rule, active = well fitted cell-killing curve with a large enough effect; inconclusive = small, poorly fitted or top-dose-only effect, or effect the other way; inactive = flat fitted curve, though single readings scatter. Where the call is inconclusive, the potency comes from a doubtful curve fit.
# Assay: qHTS assay for MDR1-selective chemotherapeutics: Primary screen using the drug-selected MDR subline cells KB-V1; note: nearly all actives have a fitted effect of over 60% in size
# Conditions: KB-V1 MDR cells viability, CellTiter-Glo, 72 h; activity change, negative = cytotoxicity: at 46.1 µM (top of the series)
# How it was run: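 Cytotoxicity toward P-gp-expressing KB-V1 cells was determined as loss of CellTiter-Glo luminescence after 72 h at 37 degrees C. Compounds were tested in quantitative HTS format across a concentration range, with curves fitted to normalized data.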
# % is set by controls: 0 for no effect and ±100 for the full control effect; potency is the fitted concentration of half-maximal effect.
SMILES,Potency,"activity change, negative = cytotoxicity"
C/C(CCc1ccccc1)=N\NC(=O)C1C2CCCCC21 (stereo not given),"inconclusive: 29.1 µM [rising, single point]",
CCOC(=O)c1[nH]c2ccccc2c1NC(=O)C1CCCC1,inactive,
N#CC(C(=O)NCCc1ccccc1)c1nc2ccccc2nc1N1CCCCC1 (stereo not given),inactive,
C=CCn1c(C)c(C(C)=O)c(N2CCN(C(c3ccccc3)c3ccccc3)CC2)nc1=S,"inconclusive: 20.6 µM [cytotoxic, single point]",
Cc1ccc(NC(=O)C2C3C=CC(O3)C2C(=O)O)c(C)c1 (stereo not given),"inconclusive: 23.1 µM [rising, single point]",
CCc1ccc(CNC(=O)c2cc(-c3ccc(Cl)s3)nc3ccccc23)cc1,"inconclusive: 20.6 µM [rising, single point]",
COc1ccc(-n2cnnc2SCC(=O)N(C)c2ccccc2)cc1,"inconclusive: 16.4 µM [cytotoxic, single point]",
CCn1c(SCC(=O)N/N=C/C=C/c2ccco2)nnc1-c1ccccc1,"inconclusive: 20.6 µM [cytotoxic, partial curve]",
O=C(CN1CCCCC1)Nc1ccccc1Oc1ccccc1,inactive,
CCN(CC(=O)NCc1cccs1)S(=O)(=O)c1cc(NC(C)=O)ccc1OC,"inconclusive: 29.1 µM [rising, partial curve, poor fit]",
CC1C(=O)CCN(C(C)(C)C)C1C (stereo not given),"inconclusive: 13 µM [rising, partial curve, poor fit]",
Cc1cc(C)nc(N2CCN(C(=O)c3ccc(S(=O)(=O)N4CCCCCC4)cc3)CC2)n1,"inconclusive: 2.31 µM [cytotoxic, full curve]",
Cc1ccc(-n2nnnc2CNC(=O)c2ccc3c(c2)OCO3)cc1C,inactive,
Cc1oc(-c2cccc(Cl)c2)nc1CN1CCC(C(=O)NC2CC2)CC1,inactive,
CCC(CC)c1nnc(NC(=O)c2cc([N+](=O)[O-])ccc2N2CCCCC2)s1,"inconclusive: 5.8 µM [cytotoxic, partial curve]",
O=C(CN1C(=O)/C(=C2\SC(=S)N(C3CCS(=O)(=O)C3)C2=O)c2ccccc21)Nc1ccccc1 (stereo not given),inactive,
C=C(C)CNC(=S)NNC(=O)c1ccncc1,"inconclusive: 10.3 µM [cytotoxic, partial curve, poor fit]",
O=C(c1ccccc1)n1c(=O)cc[nH]c1=O,"inconclusive: 8.2 µM [rising, partial curve]",
CCOC(=O)c1cc2c(=O)n3ccccc3nc2n(CC2CCCO2)c1=NC(C)=O (stereo not given),"inconclusive: 5.8 µM [cytotoxic, partial curve, poor fit]",
O=C(NCCc1ccccc1)c1ccc2c(c1)OCO2,inactive,
Cc1noc(NS(=O)(=O)c2ccc(N/C=C/C(=O)c3ccc(F)cc3)cc2)c1C,"inconclusive: 29.1 µM [rising, single point]",
Cc1ccc(S(=O)(=O)N2CCN(Cc3ccsc3)CC2)cc1,"inconclusive: 29.1 µM [cytotoxic, single point]",
O=C(CCC(C(=O)c1ccccc1)c1ccccc1)c1ccccc1 (stereo not given),"inconclusive: 20.6 µM [cytotoxic, single point]",

# 3 successive entries already listed, for reference:
SMILES,Potency,"activity change, negative = cytotoxicity"
Cc1cc(C)nc(N2CCN(C(=O)c3ccc(S(=O)(=O)N4CCCCCC4)cc3)CC2)n1,"inconclusive: 2.31 µM [cytotoxic, full curve]",
Cc1ccc(-n2nnnc2CNC(=O)c2ccc3c(c2)OCO3)cc1C,inactive,
Cc1oc(-c2cccc(Cl)c2)nc1CN1CCC(C(=O)NC2CC2)CC1,inactive,

# (listing goes on)

SMILES,Potency,"activity change, negative = cytotoxicity"
Cc1ccccc1S(=O)(=O)Nc1ncc(C(F)(F)F)cc1Cl,"inconclusive: 29.1 µM [cytotoxic, single point]",
O=S(=O)(Nc1nc2ccccc2s1)c1ccc(Br)s1,"inconclusive: 29.1 µM [cytotoxic, single point]",
COc1ccccc1-c1cc(C(F)(F)F)nc(S(C)(=O)=O)n1,"inconclusive: 29.1 µM [cytotoxic, single point]",
CCOC(=O)c1ccccc1-c1cn2cc(Cl)ccc2n1,"inconclusive: 13 µM [cytotoxic, partial curve]",
OCCNc1nc(SCc2ccccc2)nc2sc3c(c12)CCC3,active: 7.31 µM,
NC(CSC(c1ccccc1)(c1ccccc1)c1cccc2ccccc12)C(=O)O (stereo not given),,inconclusive: -17.7%
COc1cccc(C(=O)N2CCCC(c3nc(-c4cccs4)no3)C2)c1 (stereo not given),active: 4.11 µM,
CCOc1ccc2nc(NC(=O)C3CCN(C(=O)c4ccco4)CC3)sc2c1,,inconclusive: -30.8% [cytotoxic]
CCN(CC(=O)Nc1ccc(NC(C)=O)cc1)c1ccc(C(F)(F)F)cn1,"inconclusive: 20.6 µM [cytotoxic, single point]",
Cc1cccc(C)c1NC(=O)C1C(c2ccc3c(c2)OCO3)=Nc2ccccc2N1C(=O)c1cccc(C(F)(F)F)c1 (stereo not given),inactive,
O=C(c1cc(-c2ccc(Cl)c(Cl)c2)on1)N1CCCCC1,active: 14.6 µM,
CCC(=O)Nc1nonc1-c1nc2ccccc2n1Cc1ccccc1,"inconclusive: 23.1 µM [cytotoxic, partial curve]",
O=C(O)CN1CCN(Cc2ccccc2F)C1=O,"inconclusive: 23.1 µM [rising, single point]",
CCCN=C1N(CC)C[C@@H]2[C@@H]3C(=O)N(Cc4ccccc4)C(=O)[C@@H]3[C@](Cc3ccccc3)(C(=O)OC)N12,inactive,
CC1CCN(S(=O)(=O)c2ccc(NC(=O)Cc3ccccc3)cc2)CC1,"inconclusive: 29.1 µM [cytotoxic, partial curve, poor fit]",
O=C1c2cccc3cccc(c23)N1Cc1ccc(F)cc1,"inconclusive: 23.1 µM [cytotoxic, single point]",
Cc1nn(-c2ccccc2)c(C)c1C(=O)OCC(=O)NC(=O)NC1CCCC1,"inconclusive: 11.6 µM [cytotoxic, partial curve]",
CS(=O)(=O)c1ccc(NCC2CCCO2)c([N+](=O)[O-])c1 (stereo not given),inactive,
Cc1ccc(-c2nnc(CSc3nnc(COc4ccccc4)n3-c3ccc(C)cc3)o2)cc1,"inconclusive: 18.4 µM [cytotoxic, partial curve, poor fit]",
O=C(c1ccc2c(c1)OCO2)N1CCCC(c2ccccc2)C1 (stereo not given),"inconclusive: 23.1 µM [cytotoxic, single point]",
COc1cccc(Cn2c(NCc3ccc(C)cc3)nc3c2c(=O)n(C)c(=O)n3C)c1,inactive,
O=C(Nc1cccc(Br)c1)c1ccc(CN2CCc3ccccc3C2)cc1,"inconclusive: 32.6 µM [cytotoxic, partial curve, poor fit]",
